Data published in doi:10.1101/2021.02.11.430699.
Residue numbers refer to the chain shown, from its start. No constants are given. Whether binding was seen depends on the method and setting. Binding calls can cover weak binding; strength is not graded here. Where a sequence is shown, tags or fusion partners need not be part of it.

What was measured:
Experiment in all cases: two-hybrid
[1] = biological target: T1, Pol31 wild type, LexA bait fusion (S. cerevisiae) (UniProt P46957)
T1 sequence: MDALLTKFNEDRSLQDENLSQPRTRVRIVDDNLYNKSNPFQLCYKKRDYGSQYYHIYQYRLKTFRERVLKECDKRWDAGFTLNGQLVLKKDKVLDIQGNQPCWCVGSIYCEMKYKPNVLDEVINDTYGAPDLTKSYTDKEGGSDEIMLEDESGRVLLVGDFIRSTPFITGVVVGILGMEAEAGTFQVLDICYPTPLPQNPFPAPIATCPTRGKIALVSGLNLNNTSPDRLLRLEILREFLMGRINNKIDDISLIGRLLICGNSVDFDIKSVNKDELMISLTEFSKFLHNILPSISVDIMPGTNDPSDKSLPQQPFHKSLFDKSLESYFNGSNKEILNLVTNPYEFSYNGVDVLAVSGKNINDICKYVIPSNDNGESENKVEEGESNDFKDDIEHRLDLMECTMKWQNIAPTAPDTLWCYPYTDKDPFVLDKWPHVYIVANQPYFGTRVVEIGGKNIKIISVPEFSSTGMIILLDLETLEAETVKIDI

[2] = biological target: T2, Pol31-T415A, LexA bait fusion (S. cerevisiae) (UniProt P46957)
T2 sequence: T1 sequence with T415A

[3] = biological target: T3, Pol31-W417A, LexA bait fusion (S. cerevisiae) (UniProt P46957)
T3 sequence: T1 sequence with W417A

binding [1]: binds
binding [2]: binds
binding [3]: binds
Substance: Pol32 N-terminus, B42 prey fusion (S. cerevisiae) (domain or fragment)
